Data taken from paper PMC4991666.
These are yes or no findings as the source states them, for the method shown. In cells and extracts the contact can be indirect. Binding calls can cover weak binding; strength is not graded here. For part of these data: Tags and fused reporters may be left off the sequences shown.

T1: Kin1:GFP (Kindlin 1 fused to GFP) (UniProt Q9BQL6)
T1 sequence: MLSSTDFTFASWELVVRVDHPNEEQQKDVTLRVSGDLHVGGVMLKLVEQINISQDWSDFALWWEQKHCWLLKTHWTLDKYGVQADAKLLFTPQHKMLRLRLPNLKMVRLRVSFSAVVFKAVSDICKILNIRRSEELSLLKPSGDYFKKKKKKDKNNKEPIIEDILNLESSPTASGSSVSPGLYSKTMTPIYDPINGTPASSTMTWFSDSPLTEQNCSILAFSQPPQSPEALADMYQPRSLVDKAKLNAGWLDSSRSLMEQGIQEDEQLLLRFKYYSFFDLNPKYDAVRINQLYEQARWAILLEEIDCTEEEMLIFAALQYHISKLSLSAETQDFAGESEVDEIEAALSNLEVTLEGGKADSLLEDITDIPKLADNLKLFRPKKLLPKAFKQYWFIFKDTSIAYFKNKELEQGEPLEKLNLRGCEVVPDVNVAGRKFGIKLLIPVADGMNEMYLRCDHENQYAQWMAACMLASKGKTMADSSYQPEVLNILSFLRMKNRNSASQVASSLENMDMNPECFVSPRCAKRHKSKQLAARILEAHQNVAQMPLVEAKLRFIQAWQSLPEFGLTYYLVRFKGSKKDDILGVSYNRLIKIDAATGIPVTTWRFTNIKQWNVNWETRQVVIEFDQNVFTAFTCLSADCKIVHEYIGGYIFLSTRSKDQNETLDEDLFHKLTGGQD


Experiments:
[1] = molecular target: T1, Kin1:GFP (Kindlin 1 fused to GFP); assay: pull-down; GFP pull down with GFP-Trap agarose beads from 0.25-1 mg lysate (NP40 buffer: 25 mM Tris, 150 mM NaCl, 0.5% NP40, pH 7.6) of cells expressing Kin1:GFP or GFP, room temperature 30-45 min, blots of the bound proteins; also after treatment of the cells with DMSO, tubacin, BI2536 or nocodazole
[2] = molecular target: alpha-tubulin, endogenous (human (endogenous in MDA-MB-231)); assay: co-IP; lysate (NP40 buffer) incubated with agarose beads pre-conjugated with anti-HDAC6, anti-al-tub or anti-ac-tub antibody, room temperature 30-45 min; blot for endogenous Kin1

Row | Molecule | binding [1] | binding [2]
1 | alpha-tubulin, endogenous (human (endogenous in MDA-MB-231)) | binds | 
2 | p38, endogenous (human (endogenous in MDA-MB-231)) (enzyme) | no binding | 
3 | Kindlin 1 (Kin1), endogenous (protein, UniProt Q9BQL6 1-677) MLSSTDFTFASWELVVRVDHPNEEQQKDVTLRVSGDLHVGGVMLKLVEQINISQDWSDFALWWEQKHCWLLKTHWTLDKYGVQADAKLLFTPQHKMLRLRLPNLKMVRLRVSFSAVVFKAVSDICKILNIRRSEELSLLKPSGDYFKKKKKKDKNNKEPIIEDILNLESSPTASGSSVSPGLYSKTMTPIYDPINGTPASSTMTWFSDSPLTEQNCSILAFSQPPQSPEALADMYQPRSLVDKAKLNAGWLDSSRSLMEQGIQEDEQLLLRFKYYSFFDLNPKYDAVRINQLYEQARWAILLEEIDCTEEEMLIFAALQYHISKLSLSAETQDFAGESEVDEIEAALSNLEVTLEGGKADSLLEDITDIPKLADNLKLFRPKKLLPKAFKQYWFIFKDTSIAYFKNKELEQGEPLEKLNLRGCEVVPDVNVAGRKFGIKLLIPVADGMNEMYLRCDHENQYAQWMAACMLASKGKTMADSSYQPEVLNILSFLRMKNRNSASQVASSLENMDMNPECFVSPRCAKRHKSKQLAARILEAHQNVAQMPLVEAKLRFIQAWQSLPEFGLTYYLVRFKGSKKDDILGVSYNRLIKIDAATGIPVTTWRFTNIKQWNVNWETRQVVIEFDQNVFTAFTCLSADCKIVHEYIGGYIFLSTRSKDQNETLDEDLFHKLTGGQD |  | binds
